{"source": "PubChem BioAssay AID1259405 (NCATS, 2018)", "screen": "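Silenced genes that increase secreted GFP made by CHO cells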 (primary screen)", "cell system": "Chinese hamster CHO-K1 ovary cells with stable secreted eGFP expression", "reagent": "single siRNA against mouse genes, 0.8 pmol siRNA per well (2 µl of 400 nM stock)", "time to read-out": "3 days", "measured": "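Per-well intracellular GFP measured by laser scanning cytometry, plus viability from ATP luminescence, each relative to plate median of non-targeting control wells, in %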", "direction": "GFP, % of control: higher = more GFP per well, higher productivity; viability (ATP), % of control: higher = more viable cells (more ATP)", "active means": "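a knock-down is called active if GFP reaches 120% or more of non-targeting control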", "note": "Shown is an unselected part of about 50,000 deposited reagents. About 4,000 of all reagents (8%) were called active. 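Mouse siRNA library applied to hamster cells; one well for each siRNA.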 The numbers tell different reagents against one gene apart."}
The opening 3 records, ahead of the listing:
{"gene knocked down": "Septin7 (GeneID 235072)", "reagent": 1, "GFP, % of control": 91.9, "viability (ATP), % of control": 69.1, "activity call": "inactive"}
{"gene knocked down": "Septin7 (GeneID 235072)", "reagent": 2, "GFP, % of control": 69.7, "viability (ATP), % of control": 73.6, "activity call": "inactive"}
{"gene knocked down": "Septin7 (GeneID 235072)", "reagent": 3, "GFP, % of control": 57.5, "viability (ATP), % of control": 63.3, "activity call": "inactive"}

Main list, from the first entry:
{"gene knocked down": "Septin7 (GeneID 235072)", "reagent": 1, "GFP, % of control": 91.9, "viability (ATP), % of control": 69.1, "activity call": "inactive"}
{"gene knocked down": "Septin7 (GeneID 235072)", "reagent": 2, "GFP, % of control": 69.7, "viability (ATP), % of control": 73.6, "activity call": "inactive"}
{"gene knocked down": "Septin7 (GeneID 235072)", "reagent": 3, "GFP, % of control": 57.5, "viability (ATP), % of control": 63.3, "activity call": "inactive"}
{"gene knocked down": "Mmd (GeneID 67468)", "reagent": 1, "GFP, % of control": 79.9, "viability (ATP), % of control": 85.1, "activity call": "inactive"}
{"gene knocked down": "Mmd (GeneID 67468)", "reagent": 2, "GFP, % of control": 73.9, "viability (ATP), % of control": 88.3, "activity call": "inactive"}
{"gene knocked down": "Mmd (GeneID 67468)", "reagent": 3, "GFP, % of control": 73.8, "viability (ATP), % of control": 83.8, "activity call": "inactive"}
{"gene knocked down": "Ccl5 (GeneID 20304)", "reagent": 1, "GFP, % of control": 81, "viability (ATP), % of control": 135, "activity call": "inactive"}
{"gene knocked down": "Ccl5 (GeneID 20304)", "reagent": 2, "GFP, % of control": 62.2, "viability (ATP), % of control": 74, "activity call": "inactive"}
{"gene knocked down": "Tmem167b (GeneID 67495)", "reagent": 1, "GFP, % of control": 69.9, "viability (ATP), % of control": 81.1, "activity call": "inactive"}
{"gene knocked down": "Tmem167b (GeneID 67495)", "reagent": 2, "GFP, % of control": 55.6, "viability (ATP), % of control": 37.1, "activity call": "inactive"}
{"gene knocked down": "Tmem167b (GeneID 67495)", "reagent": 3, "GFP, % of control": 69.6, "viability (ATP), % of control": 81.6, "activity call": "inactive"}
{"gene knocked down": "Or6e1 (GeneID 18348)", "reagent": 1, "GFP, % of control": 112, "viability (ATP), % of control": 80, "activity call": "inactive"}
{"gene knocked down": "Or6e1 (GeneID 18348)", "reagent": 2, "GFP, % of control": 68.3, "viability (ATP), % of control": 72.5, "activity call": "inactive"}
{"gene knocked down": "Or6e1 (GeneID 18348)", "reagent": 3, "GFP, % of control": 107, "viability (ATP), % of control": 68.6, "activity call": "inactive"}
{"gene knocked down": "Actr5 (GeneID 109275)", "reagent": 1, "GFP, % of control": 74.9, "viability (ATP), % of control": 74.3, "activity call": "inactive"}
{"gene knocked down": "Actr5 (GeneID 109275)", "reagent": 2, "GFP, % of control": 81.6, "viability (ATP), % of control": 82.1, "activity call": "inactive"}
{"gene knocked down": "Sgip1 (GeneID 73094)", "reagent": 1, "GFP, % of control": 87.1, "viability (ATP), % of control": 72.6, "activity call": "inactive"}
{"gene knocked down": "Sgip1 (GeneID 73094)", "reagent": 2, "GFP, % of control": 76.8, "viability (ATP), % of control": 126, "activity call": "inactive"}
{"gene knocked down": "Sgip1 (GeneID 73094)", "reagent": 3, "GFP, % of control": 126, "viability (ATP), % of control": 81.2, "activity call": "active"}
{"gene knocked down": "Or13c7d (GeneID 29849)", "reagent": 1, "GFP, % of control": 110, "viability (ATP), % of control": 73.4, "activity call": "inactive"}
{"gene knocked down": "Or13c7d (GeneID 29849)", "reagent": 2, "GFP, % of control": 73.8, "viability (ATP), % of control": 71.9, "activity call": "inactive"}
{"gene knocked down": "Or13c7d (GeneID 29849)", "reagent": 3, "GFP, % of control": 38.9, "viability (ATP), % of control": 50.6, "activity call": "inactive"}
{"gene knocked down": "Tfcp2l1 (GeneID 81879)", "reagent": 1, "GFP, % of control": 52.6, "viability (ATP), % of control": 102, "activity call": "inactive"}
{"gene knocked down": "Tfcp2l1 (GeneID 81879)", "reagent": 2, "GFP, % of control": 49.4, "viability (ATP), % of control": 45.1, "activity call": "inactive"}
{"gene knocked down": "Tfcp2l1 (GeneID 81879)", "reagent": 3, "GFP, % of control": 107, "viability (ATP), % of control": 116, "activity call": "inactive"}
{"gene knocked down": "Elk3 (GeneID 13713)", "reagent": 1, "GFP, % of control": 44.1, "viability (ATP), % of control": 36.3, "activity call": "inactive"}
{"gene knocked down": "Elk3 (GeneID 13713)", "reagent": 2, "GFP, % of control": 72.2, "viability (ATP), % of control": 75.2, "activity call": "inactive"}
{"gene knocked down": "Elk3 (GeneID 13713)", "reagent": 3, "GFP, % of control": 116, "viability (ATP), % of control": 102, "activity call": "inactive"}
{"gene knocked down": "Tymp (GeneID 72962)", "reagent": 1, "GFP, % of control": 109, "viability (ATP), % of control": 83.8, "activity call": "inactive"}
{"gene knocked down": "Tymp (GeneID 72962)", "reagent": 2, "GFP, % of control": 11, "viability (ATP), % of control": 17.6, "activity call": "inactive"}
{"gene knocked down": "Tymp (GeneID 72962)", "reagent": 3, "GFP, % of control": 96.6, "viability (ATP), % of control": 94.9, "activity call": "inactive"}
{"gene knocked down": "Or7d10 (GeneID 258336)", "reagent": 1, "GFP, % of control": 118, "viability (ATP), % of control": 74.6, "activity call": "inactive"}
{"gene knocked down": "Or7d10 (GeneID 258336)", "reagent": 2, "GFP, % of control": 65, "viability (ATP), % of control": 57.2, "activity call": "inactive"}
{"gene knocked down": "Or7d10 (GeneID 258336)", "reagent": 3, "GFP, % of control": 89.1, "viability (ATP), % of control": 117, "activity call": "inactive"}
{"gene knocked down": "Usp18 (GeneID 24110)", "reagent": 1, "GFP, % of control": 91.1, "viability (ATP), % of control": 92.5, "activity call": "inactive"}
{"gene knocked down": "Usp18 (GeneID 24110)", "reagent": 2, "GFP, % of control": 37.5, "viability (ATP), % of control": 39.9, "activity call": "inactive"}
{"gene knocked down": "Usp18 (GeneID 24110)", "reagent": 3, "GFP, % of control": 62.7, "viability (ATP), % of control": 56.8, "activity call": "inactive"}
{"gene knocked down": "Mansc1 (GeneID 67729)", "reagent": 1, "GFP, % of control": 74.3, "viability (ATP), % of control": 55.2, "activity call": "inactive"}
{"gene knocked down": "Mansc1 (GeneID 67729)", "reagent": 2, "GFP, % of control": 43, "viability (ATP), % of control": 77, "activity call": "inactive"}
{"gene knocked down": "Mansc1 (GeneID 67729)", "reagent": 3, "GFP, % of control": 104, "viability (ATP), % of control": 40.4, "activity call": "inactive"}
